Results deposited as PubChem BioAssay AID504791 (Drosophila RNAi Screening Center, 2011).
Test: 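Factors in Argonaute-based small RNA production and activity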 (primary screen). Cell system: Drosophila S2-derived reporter cells. Reagent: long dsRNA against Drosophila genes, about 150-250 ng dsRNA per well (siRNA assay); about 80-120 ng (miRNA assay). Timing: about 5 days (siRNA assay); about 4 days (miRNA assay). Treatment: copper sulfate induction of reporters: 25 µM (siRNA assay); 200 mM stated (miRNA assay), 1-2 days before reading. Measured: 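Per-well ratio of Renilla over firefly light, expressed relative to that plate's average ratio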. Active means: 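First-pass picks had plate-scaled ratios over 1.5 for the siRNA assay, over 1.6 for the miRNA assay, or under 0.6; two distinct dsRNAs had to score alike on retest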.
The deposit covers about 23,000 reagents; this is an unselected part of those with a known target gene and a result. Of all reagents, 199 (0.86%) are marked active. 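Plate-scaled ratios behind the calls are not deposited; printed light signals are raw; many rows marked increased or decreased are still called inactive.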 Reagents against one gene are numbered here. Names joined by + are all predicted targets of the reagent. Not all columns of the deposit are shown. Not stated in the record: the direction of the score.

| target gene | reagent | stable siRNA reporter change | miRNA reporter change | stable assay Renilla, run 1 (luminescence) | Outcome |
| --- | --- | --- | --- | --- | --- |
| RpL13A | 1 | – | – | 9917 | inactive |
| nonA | 1 | – | – | 4975 | inactive |
| run | 1 | – | – | 7563 | inactive |
| run | 2 | – | – | 8689 | inactive |
| CG3544 | 1 | – | – | 34439 | inactive |
| CG30110 | 1 | – | – | 5371 | inactive |
| zf30C | 1 | – | – | 32606 | inactive |
| CG33155 + mRpL53 | 1 | – | – | 5438 | inactive |
| Mal-A7 | 1 | – | – | 7018 | inactive |
| CG3191 | 1 | – | – | 3331 | inactive |
| CG1137 | 1 | – | – | 6363 | inactive |
| CG14556 | 1 | – | – | 6667 | inactive |
| CG14109 | 1 | – | – | 6755 | inactive |
| lncRNA:CR32657 | 1 | – | – | 4200 | inactive |
| CG2852 | 1 | – | – | 6038 | inactive |
| Hr96 | 1 | – | – | 8276 | inactive |
| Creld | 1 | – | – | 6875 | inactive |
| dy | 1 | – | – | 5503 | inactive |
| CG6059 | 1 | – | – | 8434 | inactive |
| CG8034 | 1 | – | – | 7847 | inactive |
| ldbr | 1 | – | – | 8763 | inactive |
| CG42512 + CG32573 | 1 | – | – | 6226 | inactive |
| CG42512 + CG32573 | 2 | – | – | 7244 | inactive |
| CG42512 + CG32573 | 3 | – | – | 5000 | inactive |
| CR33319 | 1 | – | – | 3583 | inactive |
| Scgdelta | 1 | – | – | 6067 | inactive |
| CG7546 | 1 | – | – | 4479 | inactive |
| CG7546 | 2 | – | – | 5016 | inactive |
| CG7546 | 3 | – | – | 9758 | inactive |
| osk | 1 | – | – | 8078 | inactive |
| RapGAP1 | 1 | – | – | 5319 | inactive |
| RapGAP1 | 2 | – | – | 7091 | inactive |
| RapGAP1 | 3 | – | – | 1.92e5 | inactive |
| CG11470 | 1 | – | – | 6546 | inactive |
| CG32235 | 1 | – | – | 5868 | inactive |
| CG13314 | 1 | – | – | 5895 | inactive |
| CG9875 | 1 | – | – | 5370 | inactive |
| CD98hc | 1 | – | – | 7767 | inactive |
| beat-IIa | 1 | – | – | 7010 | inactive |
| beat-IIa | 2 | – | – | 7496 | inactive |
| CG7857 | 1 | – | – | 6731 | inactive |
| CG11248 | 1 | – | – | 8598 | inactive |
| RpS17 | 1 | – | – | 6399 | inactive |
| Amt | 1 | – | – | 6763 | inactive |
| tbrd-3 | 1 | – | reporter ratio raised past the hit cutoff | 6064 | inactive |
| tbrd-3 | 2 | – | reporter ratio raised past the hit cutoff | – | inactive |
| CG7824 | 1 | – | – | 5911 | inactive |
| SmB | 1 | – | – | 10637 | inactive |
| CG7497 | 1 | – | – | 9450 | inactive |
| Aven | 1 | – | – | 5978 | inactive |
| Tusp | 1 | – | – | 6447 | inactive |
| Ac3 | 1 | – | – | 8357 | inactive |
| CG30467 | 1 | – | – | 6766 | inactive |
| CG1354 | 1 | – | – | 5507 | inactive |
| Sirt6 | 1 | – | – | 7375 | inactive |
| CG14054 | 1 | – | – | 6267 | inactive |
| CG7341 | 1 | – | – | 7834 | inactive |
| CG13737 | 1 | – | – | 6246 | inactive |
| eIF4A | 1 | reporter ratio raised past the hit cutoff | – | 6220 | active |
| Syn2 | 1 | – | – | 6804 | inactive |
| egl | 1 | – | – | 6544 | inactive |
| CG4949 | 1 | – | – | 6692 | inactive |
| CG11668 | 1 | – | – | 6526 | inactive |
| san | 1 | – | – | 5739 | inactive |
| dmpd | 1 | – | – | 7575 | inactive |
| CG13840 | 1 | – | – | 7940 | inactive |
| CG13840 | 2 | – | – | 5002 | inactive |
| CG32773 (retired record) | 1 | – | – | 7379 | inactive |
| dsd | 1 | – | – | 6407 | inactive |
| dsd | 2 | – | – | 8255 | inactive |
| CG7011 | 1 | – | – | 5847 | inactive |
| CG7430 | 1 | – | – | 7539 | inactive |
| Traf6 | 1 | – | – | 7418 | inactive |
| CG42493 | 1 | – | – | 5311 | inactive |
| Ccp84Ab | 1 | – | – | 7191 | inactive |
| CG18063 | 1 | – | – | 7246 | inactive |
| CG16853 | 1 | – | – | 8139 | inactive |
| Mst33A | 1 | – | – | 6856 | inactive |
| TH1 | 1 | reporter ratio lowered past the hit cutoff | reporter ratio lowered past the hit cutoff | 8224 | active |
| Jhe | 1 | – | – | 5442 | inactive |
| Not1 | 1 | reporter ratio lowered past the hit cutoff | – | 6866 | active |
| Not1 | 2 | reporter ratio lowered past the hit cutoff | – | 9441 | active |
| hh | 1 | – | – | 7310 | inactive |
| hh | 2 | – | reporter ratio raised past the hit cutoff | – | inactive |

14 entries already listed, sorted by “stable assay Renilla, run 1 (luminescence)”, descending:
| target gene | reagent | stable siRNA reporter change | miRNA reporter change | stable assay Renilla, run 1 (luminescence) | Outcome |
| --- | --- | --- | --- | --- | --- |
| CG13840 | 1 | – | – | 7940 | inactive |
| CG7341 | 1 | – | – | 7834 | inactive |
| dmpd | 1 | – | – | 7575 | inactive |
| Sirt6 | 1 | – | – | 7375 | inactive |
| Syn2 | 1 | – | – | 6804 | inactive |
| CG30467 | 1 | – | – | 6766 | inactive |
| CG4949 | 1 | – | – | 6692 | inactive |
| egl | 1 | – | – | 6544 | inactive |
| CG11668 | 1 | – | – | 6526 | inactive |
| CG14054 | 1 | – | – | 6267 | inactive |
| CG13737 | 1 | – | – | 6246 | inactive |
| eIF4A | 1 | reporter ratio raised past the hit cutoff | – | 6220 | active |
| san | 1 | – | – | 5739 | inactive |
| CG1354 | 1 | – | – | 5507 | inactive |
